The target of this assay is cyclophilin 40 (Cyp40) (UniProt Q08752). In words: far-Western, overlay or dot blot; CypA and Cyp40 (1 µg, 0.5 µg, 0.25 µg) vacuum-aspirated onto a nitrocellulose membrane; blocked with 5% skim milk in PBST; overlay with PTS1 (200 ng/mL) or PBST for control; bound PTS1 detected by anti-PTS1 antibody, ECL; both purified.

Sequences of proteins named here, by UniProt entry; tags and fusion partners are left off. Residues count along the entry.
UniProt Q08752: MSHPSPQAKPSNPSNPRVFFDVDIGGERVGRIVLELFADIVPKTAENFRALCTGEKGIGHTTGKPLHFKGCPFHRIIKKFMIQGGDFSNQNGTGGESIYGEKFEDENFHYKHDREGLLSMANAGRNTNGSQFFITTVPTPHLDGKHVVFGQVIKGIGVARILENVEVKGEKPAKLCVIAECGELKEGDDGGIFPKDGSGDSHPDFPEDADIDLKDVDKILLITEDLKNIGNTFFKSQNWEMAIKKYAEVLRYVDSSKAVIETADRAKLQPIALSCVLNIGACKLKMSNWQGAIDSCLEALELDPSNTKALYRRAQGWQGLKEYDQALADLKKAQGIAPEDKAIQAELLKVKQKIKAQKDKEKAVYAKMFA
UniProt P04977, residues 35-269: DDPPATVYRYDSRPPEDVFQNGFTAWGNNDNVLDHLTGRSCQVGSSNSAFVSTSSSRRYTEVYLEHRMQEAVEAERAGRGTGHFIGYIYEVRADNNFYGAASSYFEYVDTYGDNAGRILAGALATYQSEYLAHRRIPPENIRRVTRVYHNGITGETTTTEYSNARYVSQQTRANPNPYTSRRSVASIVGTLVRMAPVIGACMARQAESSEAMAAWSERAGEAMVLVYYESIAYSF

The values that follow come from PMC5983237.

Results are given in words; binding and its absence hold for the method and conditions named. Some binding calls cover weakened binding; strength is not graded here.

As to “PTS1, the enzymatically active (A) subunit of Bordetella pertussis toxin (from UniProt P04977 35-269) (enzyme)”, the binding result was “binds”.
